Data as given in publication PMC5293742.
The exact form of at least one protein or probe is not confirmed. For part of these data: A negative result means that nothing was seen under these conditions.

Experiments:
[1] = target: RacR (response regulator, phosphorylated with RacS cytoplasmic domain + ATP) (UniProt O68795); assay: competition with a labelled probe; conditions: 10x excess unlabelled dcuB fragment abolishes shift, RacScyto, 2 mM ATP, 5 mM Mg2+, 20 mM Tris pH 7.4, 5 mM MgCl2, 50 mM KCl, 50 ug/ml BSA, 10 ug/ml poly(dI-dC), 10% glycerol, 20 min at RT, 6% native Tris-glycine gel at 4 C, recombinant protein, protein details: His-tag, label: 32P (unlabelled as competitor), probe letters rebuilt from the primers and the genome
[2] = target: RacR (response regulator, phosphorylated with RacS cytoplasmic domain + ATP) (UniProt O68795); assay: EMSA; conditions: RacScyto, 5 mM Mg2+, 20 mM Tris pH 7.4, 5 mM MgCl2, 50 mM KCl, 50 ug/ml BSA, 10 ug/ml poly(dI-dC), 10% glycerol, 20 min at RT, 6% native Tris-glycine gel at 4 C, recombinant protein, protein details: His-tag, probe letters rebuilt from the primers and the genome

Sequence	binding result ([2]; 2 mM ATP, label: 32P)	also measured
AAAATTCTATCAATCTATCAAACCCATTACACTTTTGTTTTATATTTAAATTTAATTTAAATAATATAAAAAATTATTGTTTTATTTTTAGAAATATTATTCTTTAATTTAAAAATGTGATACAATAATAACTGTTTTTAAATATCAATTTTCAAAGGAGTTAAAATGGACTTTTTAACAAGCCTTAGTGAGGGAGGGCAATTTGCAATCCAAAT (double strand) [dcuB promoter region]	–	binding result [1]: binds; binding result ([2]; 2 mM ATP (phosphorylated RacR), label: 32P (unlabelled as competitor)): binds
AGCTTGCAAAAATATATTAATTTTTTTTGAAGTAAATAAAATTTTTTATATTAATAAAAATTAAATATAAAGACATAATAGGATATAAAAATACTTAATTTATTGTATTTGAAAGTAGTTTTATTGTTAACCAATTATTAACTAAAAATGCAATATCATTATTTTATGATTTAAATCAAAAATTTTTGATTTTAAATTAAAATACTTTTATGAAAGGTTCAAAATGGGAACAAGAAAAGAACATGATTTTATTGGGGAATTAGAAATCTCTGATGAGGTTTATTA (double strand) [aspA-dcuA promoter region]	–	binding result ([2]; 2 mM ATP (phosphorylated RacR), label: 32P): binds
GCGGTTTTCTTTCAGCTAAAGTTTGACTTAAAGTTTCCAAGTTTATTCACTCCTTTTGATCTTTGTAAAATATAATTTTAACAATGCGTATTGTAAATTTTAACAAAAAAACAAATCTAGAAATACTTTCTTTTATATGATATGATAATTTTTTATATAAATGTTACAAAATTTCTCATTATTTGC (double strand) [dctA promoter region]	no binding	–
GCTGAGTATGGACCAATGGCCTTTGGATAGTTTGACATGAATTCTCCTTTGTTAAATATAGATTAAACAGAATGCATTTTATCACTACAATAATAATTTGTCAATAGTTTATTATCATAATAATAAAATTTTATTTTTAAGAAATGTTTTAAAGTATAAAGAGTA (double strand) [dcuC2 promoter region]	no binding	–
TAAGTATATAATAAGCAACGACAATTACCGCTAAAAGTGTAGAACATATCATAAAAATTGGCATGATTTCTCCTAAAGTTATTATTAGCTTTTATTTTATTTTAGCTAAAATTTAACTAATAAATATTTTTCATTTAAAATTTTACTTATTTTTTGCATTATAAAATTAATAATATGTATAGTTTGGTTACTGAAA (double strand) [dcuC promoter region]	no binding	–
